PubChem BioAssay AID1053208 | Peter MacCallum Cancer Centre – 2014

Test: 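Genes whose silencing cuts survival of bone tumour cells only with doxorubicin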 (primary screen)
Cells: mouse osteosarcoma cells, early-passage culture from an engineered mouse model of fibroblastic bone tumour
Knock-down reagent: siRNA pool against mouse genes, 40 nM
Timing: about 120 h (48 h before drug, then 72 h with drug)
Conditions: doxorubicin 100 nM for 72 h, roughly 30-40% inhibitory dose
Read-out: 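Viability read as ATP luminescence after 72 h of 100 nM doxorubicin or none, duplicate wells averaged, scaled to non-targeting siRNA, then expressed as robust z-scores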
Direction: viability z-score with doxorubicin and doxorubicin viability vs non-targeting: higher = more viable cells under doxorubicin; viability z-score without drug: higher = more viable cells with knock-down alone; z-score of drug to no-drug ratio: higher = less drug sensitisation by knock-down
Active means: 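Called active if knock-down leaves viability unchanged without drug (z within -2 to 2) but lowers it with doxorubicin (z at or under -2)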
The deposit covers about 17,000 reagents; this is an unselected part. Of all reagents, 788 (4.7%) got an active call. 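Calls rest on z-score classes alone; an extra cut-off of viability at most 70% of control was not applied to them.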 The numbers tell different reagents against one gene apart.

| Gene | reagent | combined z-score class | viability z-score with doxorubicin | viability z-score without drug | z-score of drug to no-drug ratio | doxorubicin viability vs non-targeting | Outcome |
| --- | --- | --- | --- | --- | --- | --- | --- |
| Pfkfb4 | 1 | no change with or without drug | -0.45 | -1.85 | 1.01 | 0.9 | inactive |
| Eif2ak2 | 1 | no change with or without drug | 0.67 | -0.17 | 0.9 | 1 | inactive |
| Mrpl39 | 1 | low cell count with and without drug | -7.98 | -9.95 | -3.82 | 0.23 | inactive |
| Btbd9 | 1 | no change with or without drug | 0.67 | 0.17 | 0.67 | 1 | inactive |
| Ddost | 1 | no change with or without drug | 0.34 | 0.67 | 0 | 0.97 | inactive |
| Gm10336 | 1 | no change with or without drug | 0.45 | 0.17 | 0.45 | 0.98 | inactive |
| Xrcc6 | 1 | no change with or without drug | 0.45 | -0.17 | 0.67 | 0.98 | inactive |
| Serpinb13 | 1 | no change with or without drug | 0.9 | 1.69 | -0.11 | 1.02 | inactive |
| Ciao2b | 1 | no change with or without drug | -1.12 | 1.01 | -1.69 | 0.84 | inactive |
| Bicd1 | 1 | no change with or without drug | 1.12 | 1.18 | 0.45 | 1.04 | inactive |
| Pglyrp1 | 1 | no change with or without drug | 0 | -0.51 | 0.45 | 0.94 | inactive |
| Ankrd16 | 1 | no change with or without drug | -0.67 | -0.51 | -0.22 | 0.88 | inactive |
| Rab17 | 1 | no change with or without drug | -0.22 | -0.17 | 0 | 0.92 | inactive |
| Zmynd8 | 1 | no change with or without drug | 0 | -1.01 | 0.9 | 0.94 | inactive |
| Or5p69 | 1 | no change with or without drug | -1.57 | 0.17 | -1.69 | 0.8 | inactive |
| Ptcd3 | 1 | no change with or without drug | -0.11 | 0.51 | -0.34 | 0.93 | inactive |
| Cd7 | 1 | no change with or without drug | -0.56 | -0.34 | -0.22 | 0.89 | inactive |
| Rab3il1 | 1 | no change with or without drug | 1.57 | 1.18 | 0.9 | 1.08 | inactive |
| Rab3il1 | 2 | no change with or without drug | -1.69 | -1.18 | -0.9 | 0.79 | inactive |
| Ap1s3 | 1 | no change with or without drug | 0.56 | 0.67 | 0.22 | 0.99 | inactive |
| Rrp1 | 1 | low cell count without drug only | -1.24 | -2.53 | 0.67 | 0.83 | inactive |
| Auh | 1 | no change with or without drug | -1.12 | 1.18 | -1.8 | 0.84 | inactive |
| Tab1 | 1 | no change with or without drug | 0.22 | -0.84 | 1.01 | 0.96 | inactive |
| Sstr2 | 1 | no change with or without drug | -1.12 | -1.18 | -0.34 | 0.84 | inactive |
| Htra3 | 1 | low cell count with doxorubicin only | -2.25 | -1.18 | -1.57 | 0.74 | active |
| Ces2e | 1 | no change with or without drug | -0.22 | 0.84 | -0.67 | 0.92 | inactive |
| Cpz | 1 | no change with or without drug | 0.56 | 0.17 | 0.56 | 0.99 | inactive |
| Nos3 | 1 | no change with or without drug | -0.22 | -1.52 | 1.01 | 0.92 | inactive |
| Sorbs3 | 1 | no change with or without drug | -1.12 | -0.51 | -0.79 | 0.84 | inactive |
| Adat2 | 1 | no change with or without drug | -0.34 | 0.34 | -0.45 | 0.91 | inactive |
| Cenpt | 1 | no change with or without drug | 1.12 | 0.67 | 0.79 | 1.04 | inactive |
| Krt5 | 1 | no change with or without drug | -0.67 | 0.84 | -1.12 | 0.88 | inactive |
| Kif2b | 1 | no change with or without drug | -0.67 | -0.84 | 0 | 0.88 | inactive |
| Rad18 | 1 | no change with or without drug | -0.22 | 0.34 | -0.34 | 0.92 | inactive |
| Cep41 | 1 | no change with or without drug | -0.67 | -0.17 | -0.45 | 0.88 | inactive |
| Dohh | 1 | low cell count with doxorubicin only | -2.25 | -1.85 | -1.12 | 0.74 | active |
| Eif3m | 1 | no change with or without drug | 0.67 | 0 | 0.79 | 1 | inactive |
| Rpl19 | 1 | low cell count with and without drug | -4.72 | -2.19 | -3.93 | 0.52 | inactive |
| H1f5 | 1 | no change with or without drug | 0 | -0.34 | 0.34 | 0.94 | inactive |
| Wdr62 | 1 | no change with or without drug | -0.22 | 1.01 | -0.79 | 0.92 | inactive |
| Map4k4 | 1 | no change with or without drug | -0.34 | 0.84 | -0.79 | 0.91 | inactive |
| Zfp959 | 1 | no change with or without drug | 0.56 | -0.34 | 0.9 | 0.99 | inactive |
| Nf2 | 1 | no change with or without drug | 1.35 | 1.85 | 0.22 | 1.06 | inactive |
| Zfp329 | 1 | no change with or without drug | -0.9 | -1.52 | 0.22 | 0.86 | inactive |
| Ager | 1 | high cell count with doxorubicin only | 2.59 | 0.34 | 2.59 | 1.17 | inactive |
| Fam98c | 1 | no change with or without drug | -1.57 | -0.17 | -1.46 | 0.8 | inactive |
| Csnk1g2 | 1 | no change with or without drug | -0.67 | 1.18 | -1.35 | 0.88 | inactive |
| 4930524B15Rik | 1 | high cell count without drug only | -0.9 | 2.02 | -2.02 | 0.86 | inactive |
| Ms4a4c | 1 | no change with or without drug | 0.67 | -0.67 | 1.35 | 1 | inactive |
| Nnat | 1 | no change with or without drug | -0.67 | -1.18 | 0.22 | 0.88 | inactive |

Limited to “z-score of drug to no-drug ratio”, for 4 of the entries above:
Csnk1g2: -1.35
4930524B15Rik: -2.02
Ms4a4c: 1.35
Nnat: 0.22
